Measured values published in patent US20250283871A1, “COMPOSITIONS AND METHODS FOR MODULATING THE INTERACTION BETWEEN SS18-SSX FUSION ONCOPROTEIN AND NUCLEOSOMES” (Dana-Farber Cancer Institute, Inc., priority 2020, published 2025).

B1: METTL13 (protein, UniProt Q8N6R0 1-699, looked up)
eEF1A lysine and N-terminal …: MNLLPKSSREFGSVDYWEKFFQQRGKKAFEWYGTYLELCGVLHKYIKPREKVLVIGCGNSELSEQLYDVGYRDIVNIDISEVVIKQMKECNATRRPQMSFLKMDMTQMEFPDASFQVVLDKGTLDAVLTDEEEKTLQQVDRMLAEVGRVLQVGGRYLCISLAQAHILKKAVGHFSREGWMVRVHQVANSQDQVLEAEPQFSLPVFAFIMTKFRPVPGSALQIFELCAQEQRKPVRLESAERLAEAVQERQQYAWLCSQLRRKARLGSVSLDLCDGDTGEPRYTLHVVDSPTVKPSRDNHFAIFIIPQGRETEWLFGMDEGRKQLAASAGFRRLITVALHRGQQYESMDHIQAELSARVMELAPAGMPTQQQVPFLSVGGDIGVRTVQHQDCSPLSGDYVIEDVQGDDKRYFRRLIFLSNRNVVQSEARLLKDVSHKAQKKRKKDRKKQRPADAEDLPAAPGQSIDKSYLCCEHHKAMIAGLALLRNPELLLEIPLALLVVGLGGGSLPLFVHDHFPKSCIDAVEIDPSMLEVATQWFGFSQSDRMKVHIADGLDYIASLAGGGEARPCYDVIMFDVDSKDPTLGMSCPPPAFVEQSFLQKVKSILTPEGVFILNLVCRDLGLKDSVLAGLKAVFPLLYVRRIEGEVNEILFCQLHPEQKLATPELLETAQALERTLRKPGRGWDDTYVLSDMLKTVKIV
B2: GSTK1 (protein, UniProt Q9Y2Q3 1-226, looked up)
Glutathione S-transferase …: MGPLPRTVELFYDVLSPYSWLGFEILCRYQNIWNINLQLRPSLITGIMKDSGNKPPGLLPRKGLYMANDLKLLRHHLQIPIHFPKDFLSVMLEKGSLSAMRFLTAVNLEHPEMLEKASRELWMRVWSRNEDITEPQSILAAAEKAGMSAEQAQGLLEKIATPKVKNQLKETTEAACRYGAFGLPITVAHVDGQTHMLFGSDRMELLAHLLGEKWMGPIPPAVNARL
B3: FASTKD5 (protein, UniProt Q7L8L6 28-764, looked up)
FAST kinase domain-containing …: VSYWNVSSTQHGGQDPPEHISLCHSAKKVKNICSTFSSRRILTTSSAHPGLEFSKTSSSKASTLQLGSPRATGVDEEDVEVFDSFENMRVFLQLRPEYRVHSYNASETSQLLSVSEGELILHKVRVNQNNLQAQVIVDYLCKLSSLPAEQHPVLLGSTSFALLCQLSVKKIQLFDTQDLINVLKAFVILGIPHSHSMLDVYETKCCHQVWEMNMDQLLLVADLWRYLGRKVPRFLNIFSSYLNLHWKDLSLSQLVHLIYVIGENRQVSQDLMQKLESLILKYIDLINLEEVGTICLGFFKSSTNLSEFVMRKIGDLACANIQHLSSRSLVNIVKMFRFTHVDHINFMKQIGEIAPQRIPSLGVQGVMHLTLYCSALRFLNEGVMNAVAASLPPRVAHCRSKDVAKILWSFGTLNYKPPNAEEFYSSLISEIHRKMPEFNQYPEHLPTCLLGLAFLEYFPVELIDFALSPGFVRLAQERTKFDLLKELYTLDGTVGIECPDYRGNRLSTHLQQEGSELLWYLAEKDMNSKPEFLETVFLLETMLGGPQYVKHHMILPHTRSSDLEVQLDVNLKPLPFNREATPAENVAKLRLEHVGVSLTDDLMNKLLKGKARGHFQGKTESEPGQQPMELENKAAVPLGGFLCNVADKSGAMEMAGLCPAACMQTPRMKLAVQFTNRNQYCYGSRDLLGLHNMKRRQLARLGYRVVELSYWEWLPLLKRTRLEKLAFLHEKVFTSAL
B4: B3GAT3 (protein, UniProt O94766 1-335, looked up)
Galactosylgalactosylxylosylpro …: MKLKLKNVFLAYFLVSIAGLLYALVQLGQPCDCLPPLRAAAEQLRQKDLRISQLQAELRRPPPAPAQPPEPEALPTIYVVTPTYARLVQKAELVRLSQTLSLVPRLHWLLVEDAEGPTPLVSGLLAASGLLFTHLVVLTPKAQRLREGEPGWVHPRGVEQRNKALDWLRGRGGAVGGEKDPPPPGTQGVVYFADDDNTYSRELFEEMRWTRGVSVWPVGLVGGLRFEGPQVQDGRVVGFHTAWEPSRPFPVDMAGFAVALPLLLDKPNAQFDSTAPRGHLESSLLSHLVDPKDLEPRAANCTRVLVWHTRTEKPKMKQEEQLQRQGRGSDPAIEV
B5: KDM4D (protein, UniProt Q6B0I6 1-523, looked up)
Lysine-specific demethylase 4D: METMKSKANCAQNPNCNIMIFHPTKEEFNDFDKYIAYMESQGAHRAGLAKIIPPKEWKARETYDNISEILIATPLQQVASGRAGVFTQYHKKKKAMTVGEYRHLANSKKYQTPPHQNFEDLERKYWKNRIYNSPIYGADISGSLFDENTKQWNLGHLGTIQDLLEKECGVVIEGVNTPYLYFGMWKTTFAWHTEDMDLYSINYLHLGEPKTWYVVPPEHGQRLERLARELFPGSSRGCGAFLRHKVALISPTVLKENGIPFNRITQEAGEFMVTFPYGYHAGFNHGFNCAEAINFATPRWIDYGKMASQCSCGEARVTFSMDAFVRILQPERYDLWKRGQDRAVVDHMEPRVPASQELSTQKEVQLPRRAALGLRQLPSHWARHSPWPMAARSGTRCHTLVCSSLPRRSAVSGTATQPRAAAVHSSKKPSSTPSSTPGPSAQIIHPSNGRRGRGRPPQKLRAQELTLQTPAKRPLLAGTTCTASGPEPEPLPEDGALMDKPVPLSPGLQHPVKASGCSWAPVP
B6: STX17 (protein, UniProt P56962 2-302, looked up)
Syntaxin-17: SEDEEKVKLRRLEPAIQKFIKIVIPTDLERLRKHQINIEKYQRCRIWDKLHEEHINAGRTVQQLRSNIREIEKLCLKVRKDDLVLLKRMIDPVKEEASAATAEFLQLHLESVEELKKQFNDEETLLQPPLTRSMTVGGAFHTTEAEASSQSLTQIYALPEIPQDQNAAESWETLEADLIELSQLVTDFSLLVNSQQEKIDSIADHVNSAAVNVEEGTKNLGKAAKYKLAALPVAGALIGGMVGGPIGLLAGFKVAGIAAALGGGVLGFTGGKLIQRKKQKMMEKLTSSCPDLPSQTDKKCS
B7: GTF3C2 (protein, UniProt Q8WUA4 1-911, looked up)
General transcription factor …: MDTCGVGYVALGEAGPVGNMTVVDSPGQEVLNQLDVKTSSEMTSAEASVEMSLPTPLPGFEDSPDQRRLPPEQESLSRLEQPDLSSEMSKVSKPRASKPGRKRGGRTRKGPKRPQQPNPPSAPLVPGLLDQSNPLSTPMPKKRGRKSKAELLLLKLSKDLDRPESQSPKRPPEDFETPSGERPRRRAAQVALLYLQELAEELSTALPAPVSCPEGPKVSSPTKPKKIRQPAACPGGEEVDGAPRDEDFFLQVEAEDVEESEGPSESSSEPEPVVPRSTPRGSTSGKQKPHCRGMAPNGLPNHIMAPVWKCLHLTKDFREQKHSYWEFAEWIPLAWKWHLLSELEAAPYLPQEEKSPLFSVQREGLPEDGTLYRINRFSSITAHPERWDVSFFTGGPLWALDWCPVPEGAGASQYVALFSSPDMNETHPLSQLHSGPGLLQLWGLGTLQQESCPGNRAHFVYGIACDNGCIWDLKFCPSGAWELPGTPRKAPLLPRLGLLALACSDGKVLLFSLPHPEALLAQQPPDAVKPAIYKVQCVATLQVGSMQATDPSECGQCLSLAWMPTRPHQHLAAGYYNGMVVFWNLPTNSPLQRIRLSDGSLKLYPFQCFLAHDQAVRTLQWCKANSHFLVSAGSDRKIKFWDLRRPYEPINSIKRFLSTELAWLLPYNGVTVAQDNCYASYGLCGIHYIDAGYLGFKAYFTAPRKGTVWSLSGSDWLGTIAAGDISGELIAAILPDMALNPINVKRPVERRFPIYKADLIPYQDSPEGPDHSSASSGVPNPPKARTYTETVNHHYLLFQDTDLGSFHDLLRREPMLRMQEGEGHSQLCLDRLQLEAIHKVRFSPNLDSYGWLVSGGQSGLVRIHFVRGLASPLGHRMQLESRAHFNAMFQPSSPTRRPGFSPTSHRLLPTP
B8: ALG1 (protein, UniProt Q9BT22 1-464, looked up)
Chitobiosyldiphosphodolichol …: MAASCLVLLALCLLLPLLLLGGWKRWRRGRAARHVVAVVLGDVGRSPRMQYHALSLAMHGFSVTLLGFCNSKPHDELLQNNRIQIVGLTELQSLAVGPRVFQYGVKVVLQAMYLLWKLMWREPGAYIFLQNPPGLPSIAVCWFVGCLCGSKLVIDWHNYGYSIMGLVHGPNHPLVLLAKWYEKFFGRLSHLNLCVTNAMREDLADNWHIRAVTVYDKPASFFKETPLDLQHRLFMKLGSMHSPFRARSEPEDPVTERSAFTERDAGSGLVTRLRERPALLVSSTSWTEDEDFSILLAALEKFEQLTLDGHNLPSLVCVITGKGPLREYYSRLIHQKHFQHIQVCTPWLEAEDYPLLLGSADLGVCLHTSSSGLDLPMKVVDMFGCCLPVCAVNFKCLHELVKHEENGLVFEDSEELAAQLQMLFSNFPDPAGKLNQFRKNLRESQQLRWDESWVQTVLPLVMDT
B9: ACAD9 (protein, UniProt Q9H845 38-621, looked up)
Complex I assembly factor …: AFAKELFLGKIKKKEVFPFPEVSQDELNEINQFLGPVEKFFTEEVDSRKIDQEGKIPDETLEKLKSLGLFGLQVPEEYGGLGFSNTMYSRLGEIISMDGSITVTLAAHQAIGLKGIILAGTEEQKAKYLPKLASGEHIAAFCLTEPASGSDAASIRSRATLSEDKKHYILNGSKVWITNGGLANIFTVFAKTEVVDSDGSVKDKITAFIVERDFGGVTNGKPEDKLGIRGSNTCEVHFENTKIPVENILGEVGDGFKVAMNILNSGRFSMGSVVAGLLKRLIEMTAEYACTRKQFNKRLSEFGLIQEKFALMAQKAYVMESMTYLTAGMLDQPGFPDCSIEAAMVKVFSSEAAWQCVSEALQILGGLGYTRDYPYERILRDTRILLIFEGTNEILRMYIALTGLQHAGRILTTRIHELKQAKVSTVMDTVGRRLRDSLGRTVDLGLTGNHGVVHPSLADSANKFEENTYCFGRTVETLLLRFGKTIMEEQLVLKRVANILINLYGMTAVLSRASRSIRIGLRNHDHEVLLANTFCVEAYLQNLFSLSQLDKYAPENLDEQIKKVSQQILEKRAYICAHPLDRTC
B10: PAM16 (protein)
chain: MAKYLAQIIVMGVQVVGRAFARALRQEFAASRAAADARGRAGHRSAAASNLSGLSLQEAQQILNVSKLSPEEVQKNYEHLFKVNDKSVGGSFYLQSKVVRAKERLDEELKIQAQEDREKGQMPHT

tested on: BAF complex subunits and histone proteins; experiment: Mass spectrometry proteomics of purified HA-SS18 WT and HA-SS18-SSX1 complexes (Tables 5A-5E); design: species or system human; details: HA-SS18SSX1_NE_peptides: protein co-purified with HA-SS18-SSX1 BAF complexes from soluble nuclear extract (NE), HEK-293T cells

| Molecule | Total (peptides) | Unique (peptides) |
| --- | --- | --- |
| B1 | 1 | 1 |
| B2 | 1 | 1 |
| B3 | 1 | 1 |
| B4 | 1 | 1 |
| B5 | 1 | 1 |
| B6 | 1 | 1 |
| B7 | 1 | 1 |
| B8 | 1 | 1 |
| B9 | 1 | 1 |
| B10 | 1 | 1 |

same assay, conditions: HA-SS18WT_NE_peptides: HA-SS18 WT complexes purified from nuclear extract (NE), HEK-293T; label = protein identified (Gene Symbol)

| Molecule | Total (peptides) | Unique (peptides) |
| --- | --- | --- |
| B9 | 3 | 3 |

same assay, conditions: HA-SS18WT_NE_peptides: proteins co-purified with HA-SS18 WT from nuclear extract (NE), HEK-293T

| Molecule | Total (peptides) | Unique (peptides) |
| --- | --- | --- |
| B1 | 1 | 1 |
| B2 | 1 | 1 |
| B3 | 1 | 1 |
| B8 | 1 | 1 |
| B10 | 1 | 1 |
